Measured values published in article PMC11840111.
No constants are given. Whether binding was seen depends on the method and setting. In cells and extracts the contact can be indirect. A result given as binding can be weak or reduced; the word gives no strength.

The chains behind the UniProt entries cited, without tags or fusion partners. Where a name states a change or a piece, a line headed by the entry shows the natural chain unless it says otherwise.
UniProt P67775: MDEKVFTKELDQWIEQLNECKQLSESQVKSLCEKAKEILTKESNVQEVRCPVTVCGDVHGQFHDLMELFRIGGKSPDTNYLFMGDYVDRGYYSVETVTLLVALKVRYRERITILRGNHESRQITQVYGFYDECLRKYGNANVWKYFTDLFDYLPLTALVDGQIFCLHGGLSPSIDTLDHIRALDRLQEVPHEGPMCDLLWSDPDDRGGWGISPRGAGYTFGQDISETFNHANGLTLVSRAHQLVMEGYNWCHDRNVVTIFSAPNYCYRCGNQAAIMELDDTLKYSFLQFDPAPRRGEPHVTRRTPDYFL

B1: PP2A subunit B isoform delta (protein, UniProt Q66LE6 1-453)
chain: MAGAGGGGCPAGGNDFQWCFSQVKGAIDEDVAEADIISTVEFNYSGDLLATGDKGGRVVIFQREQENKSRPHSRGEYNVYSTFQSHEPEFDYLKSLEIEEKINKIRWLPQQNAAHFLLSTNDKTIKLWKISERDKRAEGYNLKDEDGRLRDPFRITALRVPILKPMDLMVEASPRRIFANAHTYHINSISVNSDHETYLSADDLRINLWHLEITDRSFNIVDIKPANMEELTEVITAAEFHPHQCNVFVYSSSKGTIRLCDMRSSALCDRHSKFFEEPEDPSSRSFFSEIISSISDVKFSHSGRYMMTRDYLSVKVWDLNMESRPVETHQVHEYLRSKLCSLYENDCIFDKFECCWNGSDSAIMTGSYNNFFRMFDRDTRRDVTLEASRESSKPRASLKPRKVCTGGKRRKDEISVDSLDFNKKILHTAWHPVDNVIAVAATNNLYIFQDKIN

How the values were obtained:
Assay in all cases: co-IP; endogenous proteins in cell lysates (HK-2 ER stress model, tunicamycin without or with Sephin1); antibody mixed with lysate in Cell Lysis Buffer overnight at 4 °C, protein A/G magnetic beads 1 h at 4 °C, low-pH elution, Western blot
[1] = target: T1, PP2A subunit B isoform delta (human (endogenous in HK-2)) (UniProt Q66LE6)
T1 sequence: B1 chain

[2] = target: AMPK (human (endogenous in HK-2))
[3] = target: PP2A catalytic subunit (PP2ACα/β) (human (endogenous in HK-2)) (UniProt P67775)

Molecule	binding [1]	binding [2]	binding [3]
PP2A catalytic subunit (PP2ACα/β) (from UniProt P67775)	binds	–	–
B1	–	binds	binds
